Source: the supplement of paper PMC4749390
Counter-ions that a name gives are not always drawn. This is one part of the list. This data set is noisy: repeats of one test often differ as much as different tests do.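 JEG3 cells stably carry tetracycline-induced wild-type human LRH-1, a heavily sumoylated nuclear receptor. APOC3 and MUC1 are SUMO-sensitive transcripts, raised by SUMO-less LRH-1 or UBC9 knockdown, measured by RT-qPCR against TBP and DMSO controls. A robust Z-score above +2 or below -2 marked a primary hit before toxicity and TBP filtering.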

tested on: JEG3 expressing hLRH-1; test: APOC3 transcript change (ddCt vs TBP and DMSO), Z-score over library; higher = higher APOC3 expression; conditions: 10 µM; time (hr): 24

SMILES	APOC3 transcript change (Z-score)
O=C(O)c1cc(O)c2c(c1)[C@@H]([C@H]1c3cc(C(=O)O)cc(O)c3C(=O)c3c(O[C@H]4O[C@H](CO)[C@@H](O)[C@H](O)[C@H]4O)cccc31)c1cccc(O[C@H]3O[C@H](CO)[C@@H](O)[C@H](O)[C@H]3O)c1C2=O (stereo in doubt) [sennoside a]	-0.786
CC(=O)NC[C@H]1CN(c2ccc(N3CCOCC3)c(F)c2)C(=O)O1 [linezolid]	0.274
CC(C)/N=C(N)/N=C(\N)Nc1ccc(Cl)cc1 [chlorguanide hydrochloride]	1.11
Nc1nc(O)c2ncn(COC(CO)CO)c2n1 [ganciclovir]	-0.536
O=S(=O)(c1cccc2cnccc12)N1CCCNCC1 [fasudil hydrochloride]	-2.39
CCCCCCCCCCCCCCCC(=O)OC[C@@H](NC(=O)C(Cl)Cl)[C@H](O)c1ccc([N+](=O)[O-])cc1 [chloramphenicol palmitate]	-0.741
c1ccc(-c2ccc(C(c3ccccc3)n3ccnc3)cc2)cc1 (configuration not stated) [bifonazole]	0.577
Cc1cc(CC(=O)O)n(C)c1C(=O)c1ccc(Cl)cc1 [zomepirac sodium]	0.347
CN1Cc2c(N)cccc2C(c2ccccc2)C1 (configuration not stated) [Nomifensine maleate]	0.743
Oc1nc2ccccc2n1CCCN1CCC(n2c(O)nc3cc(Cl)ccc32)CC1 [Domperidone]	-0.0368
N[C@@H](Cc1cc(I)c(Oc2cc(I)c(O)c(I)c2)c(I)c1)C(=O)O [thyroxine]	0.123
Cc1cnc(NC(=O)C2=C(O)c3ccccc3S(=O)(=O)N2C)s1 [meloxicam]	0.374
Nc1ccc(C(=O)O)cc1 [potassium p-aminobenzoate]	-0.0686
CC(=O)O[C@@]12CO[C@@H]1C[C@H](O)[C@@]1(C)C(=O)[C@H](O)C3=C(C)[C@@H](OC(=O)[C@H](O)[C@@H](NC(=O)OC(C)(C)C)c4ccccc4)C[C@@](O)([C@@H](OC(=O)c4ccccc4)[C@H]21)C3(C)C [docetaxel]	1.92
CCN(CC)C(=O)c1cccc(C)c1 [deet]	-0.558
CCN(CC)C(=O)c1cccnc1 [nikethamide]	-0.284
NC(=O)N1c2ccccc2C=Cc2ccccc21 [Carbamazepine]	0.0224
CCCCCCCCCC(=O)N[C@@H](Cc1c[nH]c2ccccc12)C(=O)N[C@@H](CC(N)=O)C(=O)N[C@@H](CC(=O)O)C(=O)N[C@@H]1C(=O)NCC(=O)N[C@@H](CCCN)C(=O)N[C@@H](CC(=O)O)C(=O)N[C@H](C)C(=O)N[C@@H](CC(=O)O)C(=O)NCC(=O)N[C@H](CO)C(=O)NC([C@@H](C)CC(=O)O)C(=O)N[C@@H](CC(=O)c2ccccc2N)C(=O)O[C@H]1C (some centres not stated) [daptomycin (5 millimolar/dmso)]	-1.11
CC(=O)N(CC(O)CN(C(C)=O)c1c(I)c(C(=O)NCC(O)CO)c(I)c(C(=O)NCC(O)CO)c1I)c1c(I)c(C(=O)NCC(O)CO)c(I)c(C(=O)NCC(O)CO)c1I (configuration not stated) [iodixanol]	-0.329
CC(C)(C)c1ccc(C(O)CCCN2CCC(C(O)(c3ccccc3)c3ccccc3)CC2)cc1 (configuration not stated) [terfenadine]	1.23
CC(O)C(=O)O (configuration not stated) [ammonium lactate]	-0.413

11 of these compounds, reformatted.
SMILES | APOC3 transcript change (Z-score)
O=C(O)c1cc(O)c2c(c1)[C@@H]([C@H]1c3cc(C(=O)O)cc(O)c3C(=O)c3c(O[C@H]4O[C@H](CO)[C@@H](O)[C@H](O)[C@H]4O)cccc31)c1cccc(O[C@H]3O[C@H](CO)[C@@H](O)[C@H](O)[C@H]3O)c1C2=O (stereo in doubt) [sennoside a] | -0.786
Nc1nc(O)c2ncn(COC(CO)CO)c2n1 [ganciclovir] | -0.536
O=S(=O)(c1cccc2cnccc12)N1CCCNCC1 [fasudil hydrochloride] | -2.39
CN1Cc2c(N)cccc2C(c2ccccc2)C1 (configuration not stated) [Nomifensine maleate] | 0.743
Oc1nc2ccccc2n1CCCN1CCC(n2c(O)nc3cc(Cl)ccc32)CC1 [Domperidone] | -0.0368
CCN(CC)C(=O)c1cccc(C)c1 [deet] | -0.558
CCN(CC)C(=O)c1cccnc1 [nikethamide] | -0.284
NC(=O)N1c2ccccc2C=Cc2ccccc21 [Carbamazepine] | 0.0224
CC(=O)N(CC(O)CN(C(C)=O)c1c(I)c(C(=O)NCC(O)CO)c(I)c(C(=O)NCC(O)CO)c1I)c1c(I)c(C(=O)NCC(O)CO)c(I)c(C(=O)NCC(O)CO)c1I (configuration not stated) [iodixanol] | -0.329
CC(C)(C)c1ccc(C(O)CCCN2CCC(C(O)(c3ccccc3)c3ccccc3)CC2)cc1 (configuration not stated) [terfenadine] | 1.23
CC(O)C(=O)O (configuration not stated) [ammonium lactate] | -0.413

Continuation.

SMILES	APOC3 transcript change (Z-score)
CC1CCc2cc(F)cc3c(=O)c(C(=O)O)cn1c23 (configuration not stated) [flumequine]	-0.567
COc1nc(N)nc2c1ncn2C1O[C@H](CO)[C@@H](O)[C@@H]1O (some centres not stated) [nelarabin]	-0.235
COc1c2occc2cc2ccc(=O)oc12 [methoxsalen]	-0.318
c1ccc2c(c1)CCCC2C1=NCCN1 (configuration not stated) [tetrahydrozoline hydrochloride]	-1.1
NC(=O)C(c1ccccc1)(c1ccccc1)C1CCN(CCc2ccc3c(c2)CCO3)C1 (configuration not stated) [darifenacin hydrobromide]	-0.171
C[C@]12CCC3c4ccc(O)cc4CCC3C1CC[C@@H]2O (some centres not stated) [estradiol]	0.0304
CC(C(=O)O)c1ccc(-c2ccccc2)c(F)c1 (configuration not stated) [flurbiprofen]	0.0118
CCCCCCOc1ccccc1C(N)=O [exalamide]	0.21
CCO/C(O)=C1\C(C)=NC(C)=C(C(=O)OC)C1c1cccc([N+](=O)[O-])c1 (configuration not stated) [Nitrendipine]	0.925
CNCCCN1c2ccccc2CCc2ccccc21 [Desipramine hydrochloride]	0.678
Cc1nc(COP(=O)(O)O)cc2c1[O][Mn][O]c1c(cc(COP(=O)(O)O)nc1C)CN(CC(=O)O)CCN(CC(=O)O)C2 [mangafodipir trisodium]	-0.0126
CO/N=C(\C(=O)N[C@@H]1C(=O)N2C(C(=O)OCOC(=O)C(C)(C)C)=C(/C=C\c3scnc3C)CS[C@H]12)c1csc(N)n1 [cefditorin pivoxil]	1.01
O=C(OC[C@H]1O[C@@H](OC(=O)c2cc(O)c(O)c(OC(=O)c3cc(O)c(O)c(O)c3)c2)[C@H](OC(=O)c2cc(O)c(O)c(OC(=O)c3cc(O)c(O)c(O)c3)c2)[C@@H](OC(=O)c2cc(O)c(O)c(OC(=O)c3cc(O)c(O)c(O)c3)c2)[C@@H]1OC(=O)c1cc(O)c(O)c(OC(=O)c2cc(O)c(O)c(O)c2)c1)c1cc(O)c(O)c(OC(=O)c2cc(O)c(O)c(O)c2)c1 [tannic acid]	4.87
CCCCC(=O)O[C@H]1CC[C@H]2[C@@H]3CCc4cc(O)ccc4[C@H]3CC[C@]12C [estradiol valerate]	0.473
Cc1ccc(Nc2c(F)cccc2Cl)c(CC(=O)O)c1 [lumiracoxib]	-0.95
CCN(Cc1ccncc1)C(=O)C(CO)c1ccccc1 (configuration not stated) [Tropicamide]	-0.242
O=C1NC(=O)C(c2ccccc2)(c2ccccc2)N1 [Phenytoin sodium]	-0.697
Cc1cccc(C(=O)O)c1O [hydroxytoluic acid]	0.876
Cc1ccc2c(Br)cc(Br)c(OC(=O)c3ccccc3)c2n1 [broxaldine]	-1.31
CN(C/C=C/C#CC(C)(C)C)Cc1cccc2ccccc12 [terbinafine hydrochloride]	-1.44
CCOc1ccc2ccccc2c1NC(=O)[C@@H]1C(=O)N2C(C(=O)O)C(C)(C)S[C@H]12 (some centres not stated) [nafcillin sodium]	-0.18
